Data as given in PubChem BioAssay AID686943 (Drosophila RNAi Screening Center, 2013)
Assay: 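Fly genes whose loss alters ERK activation after insulin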 (primary screen). System: Drosophila S2R+ haemocyte-like cells expressing YFP-tagged ERK (Rolled). Knock-down reagent: long dsRNA against Drosophila genes. Conditions: insulin stimulation versus unstimulated cells; dose and duration not given. Measurement: 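Antibody staining for doubly phosphorylated ERK divided by ERK-YFP signal, as plate z-scores, in insulin-treated and untreated cells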. Scale: replicate 1, z-score of dpERK with insulin and replicate 2, z-score of dpERK with insulin: higher = more active ERK per ERK-YFP after insulin; replicate 1, z-score of dpERK under basal conditions: higher = more basal active ERK per ERK-YFP.
In all, the deposit lists about 23,000 reagents; below is an unselected part of those that have a named target and a result. 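Extra replicates exist only for a retested subset of genes; insulin dose and duration not given; both raised and lowered dpERK matter.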 Reagents against one gene are numbered here. Further read-outs or replicates are left out here. Not stated in the record: the amount of reagent, the time to read-out.

target | reagent no. | replicate 1, z-score of dpERK with insulin | replicate 2, z-score of dpERK with insulin | replicate 1, z-score of dpERK under basal conditions
l(3)neo38 (GeneID 41423) | 1 | 1.86 | -0.99 | -0.32
l(3)neo38 (GeneID 41423) | 2 | 1.68 | 0.75 | -0.59
APC10 (GeneID 36975) | 1 | -0.14 | 0.23 | 0.44
CtsL3 (GeneID 40741) | 1 | -0.04 | 0.01 | 0.45
Srp19 (GeneID 38815) | 1 | 1.48 | 1.08 | 0.11
CtsL4 (GeneID 34401) | 1 | -0.33 | 0.21 | -1.6
und (GeneID 34294) | 1 | -0.37 | -1.62 | 0.16
CG15152 (GeneID 35082) | 1 | -0.24 | 0.45 | 0.4
Eglp2 (GeneID 37737) | 1 | 0.56 | -0.15 | 0.06
sad (GeneID 44858) | 1 | -0.12 | 0.15 | -0.68
nerfin-2 (GeneID 41235) | 1 | 0.6 | -0.12 | 0.2
ymp (GeneID 43088) | 1 | -0.02 | 0.86 | 0.92
ymp (GeneID 43088) | 2 | -0.68 | 0.27 | -0.4
CG4709 (GeneID 34324) | 1 | -0.68 | -1.09 | -0.19
CG34325 (GeneID 32656) | 1 | 0.18 | -0.5 | -0.22
CG34325 (GeneID 32656) | 2 | -0.11 | 0.17 | -0.23
CG31550 (GeneID 40661) | 1 | -0.8 | -0.27 | 0.63
CG31550 (GeneID 40661) | 2 | -0.24 | 0.22 | 1.21
Pkg21D (GeneID 33253) | 1 | 1.07 | -0.4 | -0.21
Atu (GeneID 40684) | 1 | 0.13 | 0.12 | -0.53
IleRS (GeneID 45785) | 1 | 0.27 | 0.53 | 0.18
CG34460 (GeneID 5740316) | 1 | -0.35 | -1.13 | 0.43
CG17141 (GeneID 42697) | 1 | 0.12 | -0.25 | -0.48
Ir85a (GeneID 41052) | 1 | 0.26 | -0.04 | 0.46
CG9426 (GeneID 34719) | 1 | -2.32 | -0.19 | 0.75
CG14135 (GeneID 39316) | 1 | -0.14 | 0.48 | 0.42
Rh50 (GeneID 38589) | 1 | 1.24 | 0.82 | -0.39
CG15143 (GeneID 35062) | 1 | 0.12 | 0.34 | 0.99
mRpL27 (GeneID 318825) | 1 | -0.06 | -0.62 | 0.21
CG42360 (GeneID 37937) | 1 | -0.19 | 0.72 | 0.12
CG5674 (GeneID 35072) | 1 | -2.26 | -2.31 | -1.25
CG17290 (GeneID 36938) | 1 | -0.08 | 0.5 | 0.2
CG33268 (GeneID 2768979) | 1 | 0.43 | 0.77 | -1.04
fs(2)ltoPP43 (GeneID 49505) | 1 | -0.36 | -1.41 | -0.86
Csk (GeneID 41398) | 1 | -0.88 | -0.02 | 0.59
Csk (GeneID 41398) | 2 | -1.65 | 0.64 | -0.44
CG1998 (GeneID 32300) | 1 | 0.39 | 0.09 | 1.37
mtDNA-helicase (GeneID 34307) | 1 | -0.89 | -0.03 | 0.91
Ssadh (GeneID 43092) | 1 | -0.03 | 0.25 | -0.15
gNacalpha (GeneID 33279) | 1 | -0.18 | 1.91 | 1.07
CG9519 (GeneID 32415) | 1 | -0.16 | 0.13 | -0.52
CG3635 (GeneID 35447) | 1 | -0.37 | 0.59 | 0.58
dco (GeneID 43673) | 1 | 1.82 | 0.24 | 2.08
FoxL1 (GeneID 38471) | 1 | -0.7 | -0.91 | 1.55
Hex-C (GeneID 44008) | 1 | -1.6 | 0.21 | -1.12
CG6791 (GeneID 41391) | 1 | -0.41 | 0.03 | -0.29
Sgf11 (GeneID 40035) | 1 | -0.96 | -0.16 | 0.18
CG32762 (GeneID 318198) | 1 | 0.56 | 0.01 | 1.3
NimB4 (GeneID 34814) | 1 | 0.67 | -0.45 | 0.27
M7BP (GeneID 35698) | 1 | -0.23 | -0.47 | -0.39
M7BP (GeneID 35698) | 2 | 1.81 | 1.11 | -0.03
M7BP (GeneID 35698) | 3 | 0.61 | -0.53 | 0.54
M7BP (GeneID 35698) | 4 | 0.03 | 0.48 | -0.39
M7BP (GeneID 35698) | 5 | 0.89 | 0.14 | 0.47
TyrRII (GeneID 42135) | 1 | 2.47 | 0.75 | -0.36
Spec2 (retired record) (GeneID 3772539) | 1 | 0.04 | 0.3 | 0.2
Spec2 (retired record) (GeneID 3772539) | 2 | -1.43 | -1.46 | 0.01

An excerpt from above, showing only “replicate 2, z-score of dpERK with insulin”.
Pkg21D (GeneID 33253)	-0.4
Atu (GeneID 40684)	0.12
IleRS (GeneID 45785)	0.53
CG34460 (GeneID 5740316)	-1.13
CG17141 (GeneID 42697)	-0.25
Ir85a (GeneID 41052)	-0.04
CG9426 (GeneID 34719)	-0.19
CG14135 (GeneID 39316)	0.48
Rh50 (GeneID 38589)	0.82
